Results: paper PMC9023281
Construct, isoform or probe ends are uncertain for at least one entry. A weaker result is weaker than the reference pair of the same experiment.

Amino acid sequences for entries named in this document (tags omitted). Residues count along the entry.
UniProt O75417, 1-894: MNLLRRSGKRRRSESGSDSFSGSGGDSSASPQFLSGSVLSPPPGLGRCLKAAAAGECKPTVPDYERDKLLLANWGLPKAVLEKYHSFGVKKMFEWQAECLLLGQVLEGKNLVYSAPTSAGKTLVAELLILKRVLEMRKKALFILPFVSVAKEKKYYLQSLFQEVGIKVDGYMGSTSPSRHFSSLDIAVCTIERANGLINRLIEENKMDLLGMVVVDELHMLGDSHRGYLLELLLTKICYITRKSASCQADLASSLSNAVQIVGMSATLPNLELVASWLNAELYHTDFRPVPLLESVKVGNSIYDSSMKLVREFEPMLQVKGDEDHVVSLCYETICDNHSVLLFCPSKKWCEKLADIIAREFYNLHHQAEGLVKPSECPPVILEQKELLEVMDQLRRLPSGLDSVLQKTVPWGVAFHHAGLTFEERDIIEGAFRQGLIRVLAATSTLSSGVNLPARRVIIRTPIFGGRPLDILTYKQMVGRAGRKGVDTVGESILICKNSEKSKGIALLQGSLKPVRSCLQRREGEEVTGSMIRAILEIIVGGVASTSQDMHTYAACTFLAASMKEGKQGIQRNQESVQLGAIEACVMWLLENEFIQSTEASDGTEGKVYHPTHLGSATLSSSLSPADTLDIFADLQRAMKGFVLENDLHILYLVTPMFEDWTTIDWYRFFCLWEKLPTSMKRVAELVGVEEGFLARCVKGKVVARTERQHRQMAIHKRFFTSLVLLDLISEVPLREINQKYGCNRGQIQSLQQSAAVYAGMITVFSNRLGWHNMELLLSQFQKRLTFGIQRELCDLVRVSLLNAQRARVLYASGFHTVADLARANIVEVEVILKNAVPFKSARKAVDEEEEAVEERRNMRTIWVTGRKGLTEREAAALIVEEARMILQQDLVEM

Target: PARylated Polθ-h (UniProt O75417)
Experiment: EMSA
Conditions: Imaging Buffer: 40 mM Tris-HCl pH 8.0, 50 mM NaCl, 2 mM MgCl2, 1 mM DTT, 0.2 mg/ml BSA, 1 mM ATP, EMSA at room temperature, single-molecule at 37 C, recombinant protein, residues 1-894, single-stranded DNA

TTTTTTTTTTTTTTTTTTTTTTTTTTTTTTTTTTTTTTTTTTTTTTTTTT [dT50 (Poly-T50)]
binding result (256 nM prebound Polθ-h, then 25 nM PARP-1 and 4.5 mM NAD+, rapid release): binds more weakly | Kd (pre-incubated with PARP-1 and NAD+, at least ten-fold lower affinity): > 370 nM
